Source: PubChem BioAssay AID180 (DTP/NCI, 2004)
The list shows only some results of the screen, not a fair sample: it is rich in T/C values a quarter to a half above the control, in often repeated tests (any T/C) and in doses without a T/C. Further doses and runs are listed elsewhere. T/C is the treated group as % of the vehicle group. Schedules are NCI's codes, taken here to give the interval after Q, in days (D) or hours (H), and the number of doses after X. Some T/C values carry the count of animals alive at the toxicity check (mostly the fifth day); where none is given, no animal had died by that day. Some doses have a count of surviving animals in place of a T/C: the source holds a T/C of zero for them, seemingly a mark for toxic or unscored doses. Counts of survivors are from the toxicity check (mostly the fifth day) where no day follows; animals may have died later. Some entries were tested several times; the results are listed from low to high.

System: BDF1 mice, Adenocarcinoma 755 s.c., tumor weight T/C
Assay: NCI In Vivo Anticancer Drug Screen. Data for tumor model Adenocarcinoma 755 (subcutaneous) in B6D2F1 (BDF1) mice
Conditions: T/C endpoint: mean tumor weight, higher T/C = larger tumour; for T/C: evaluated on day 12
Summary of the method: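 Tumor-bearing mice receive test compound while controls get vehicle alone. Antitumor effect is scored from survival or tumor dimensions as a T/C quotient.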

[1] = dose: 120.0 mg/kg/injection, schedule: Q01DX011 (ip), vehicle: carboxymethylcellulose (CMC)
[2] = dose: 240.0 mg/kg/injection, schedule: Q01DX011 (ip), vehicle: carboxymethylcellulose (CMC)
[3] = dose: 120.0 mg/kg/injection, schedule: Q01DX011 (ip), vehicle: methylcellulose (MC)

Compound: COC12C(COC(N)=O)C3=C(C(=O)C(C)=C(N)C3=O)N1CC1C2N1C (stereo unspecified)
- survivor count (dose: 20.0 mg/kg/injection, schedule: Q01DX011 (ip), vehicle: carboxymethylcellulose (CMC)): 1 of 10

Compound: Nc1ncnc2c1ncn2CCO
- T/C (dose: 200.0 mg/kg/injection, schedule: Q01DX011 (ip), vehicle: methylcellulose (MC)): 134 % of control

Compound: CSc1nc(Cl)cc2nc(Cl)cn12
- survivor count [1]: 5 of 10
- survivor count [2]: 0 of 10

Compound: OCC1OC(n2cnc3c(Cl)ncnc32)C(O)C1O (stereo unspecified)
- survivor count (dose: 1000.0 mg/kg/injection, schedule: Q01DX011 (ip), vehicle: methylcellulose (MC)): 6 of 10
- survivor count (dose: 1500.0 mg/kg/injection, schedule: Q01DX011 (ip), vehicle: methylcellulose (MC)): 3 of 10

Compound: Cn1c(Cl)nc2nc(Cl)nc(Cl)c21
- survivor count (dose: 15.0 mg/kg/injection, schedule: Q01DX011 (ip), vehicle: carboxymethylcellulose (CMC)): 6 of 10
- survivor count (dose: 30.0 mg/kg/injection, schedule: Q01DX011 (ip), vehicle: carboxymethylcellulose (CMC)): 0 of 10
- survivor count (dose: 60.0 mg/kg/injection, schedule: Q01DX011 (ip), vehicle: carboxymethylcellulose (CMC)): 0 of 10
- survivor count [1]: 0 of 10
- survivor count [2]: 0 of 10

Compound: NC(=O)c1ccccc1Nc1ccc([N+](=O)[O-])cc1[N+](=O)[O-]
- T/C (dose: 49.0 mg/kg/injection, schedule: Q01DX011 (ip), vehicle: carboxymethylcellulose (CMC)): 131 % of control
- T/C (dose: 70.0 mg/kg/injection, schedule: Q01DX011 (ip), vehicle: carboxymethylcellulose (CMC)): 139 % of control [9 of 10 alive]

Compound: CCSc1nc(Cl)cc(Sc2nc(N)nc3nc[nH]c23)n1
- survivor count (dose: 288.0 mg/kg/injection, schedule: Q01DX011 (ip), vehicle: methylcellulose (MC)): 1 of 10

Compound: Oc1ccc2ccccc2c1-c1c(O)ccc2ccccc12
- survivor count (dose: 100.0 mg/kg/injection, schedule: Q01DX011 (ip), vehicle: other): 2 of 10

Compound: C/C(=N\NC(=O)c1ccncc1)c1cc(Cl)ccc1Cl
- survivor count [3]: 1 of 10

Compound: CC(CBr)C(=O)N1CCN(C(=O)C(C)CBr)CC1 (stereo unspecified)
- T/C (dose: 28.0 mg/kg/injection, schedule: Q01DX011 (ip), vehicle: methylcellulose (MC)): 127 % of control
- T/C (dose: 57.0 mg/kg/injection, schedule: Q01DX011 (ip), vehicle: methylcellulose (MC)): 126 % of control
- T/C (dose: 113.0 mg/kg/injection, schedule: Q01DX011 (ip), vehicle: methylcellulose (MC)): 133 % of control
- T/C (dose: 225.0 mg/kg/injection, schedule: Q01DX011 (ip), vehicle: methylcellulose (MC)): 134 % of control

Compound: C[C@]12CCC(=O)C=C1CC[C@@H]1[C@@H]2[C@@H](O)C[C@@]2(C)[C@H]1CC[C@]2(O)C(=O)CF
- survivor count (dose: 400.0 mg/kg/injection, schedule: Q01DX011 (sc), vehicle: steroid suspending solution): 6 of 10

Compound: C/C(=N\NC(=O)c1ccncc1)c1cccc(Br)c1
- T/C (dose: 1.8 mg/kg/injection, schedule: Q01DX011 (ip), vehicle: carboxymethylcellulose (CMC)): 133 % of control [9 of 10 alive]
- survivor count (dose: 7.5 mg/kg/injection, schedule: Q01DX011 (ip), vehicle: carboxymethylcellulose (CMC)): 6 of 10
- survivor count [3]: 1 of 10

Compound: COC(=O)c1[nH]c(=O)[nH]c(=O)c1F
- T/C (dose: 1.5 mg/kg/injection, schedule: Q01DX011 (ip), vehicle: methylcellulose (MC)): 145 % of control

Compound: CCCCn1cnc2c(SCCc3ccccc3)nc(N)nc21
- survivor count (dose: 400.0 mg/kg/injection, schedule: Q01DX011 (ip), vehicle: methylcellulose (MC)): 6 of 10

Compound: O=C(O)C1CCCN1c1ncnc2nc[nH]c12 (stereo unspecified)
- T/C (dose: 225.0 mg/kg/injection, schedule: Q01DX011 (ip), vehicle: saline): 142 % of control

Compound: O=C1Nc2ccccc2SC1c1ccccc1Cl (stereo unspecified)
- survivor count (dose: 75.0 mg/kg/injection, schedule: Q01DX011 (ip), vehicle: methylcellulose (MC)): 4 of 10
- survivor count (dose: 150.0 mg/kg/injection, schedule: Q01DX011 (ip), vehicle: methylcellulose (MC)): 4 of 10
- survivor count (dose: 300.0 mg/kg/injection, schedule: Q01DX011 (ip), vehicle: methylcellulose (MC)): 2 of 10 and 7 of 12
- survivor count (dose: 600.0 mg/kg/injection, schedule: Q01DX011 (ip), vehicle: methylcellulose (MC)): 2 of 12
